Results: paper PMC7588595, “Small-molecule active pharmaceutical ingredients of approved cancer therapeutics inhibit human aspartate/asparagine-β-hydroxylase” (Bioorganic & Medicinal Chemistry, 2020)

Molecular target: T1, human AspH (His6-AspH315–758) (Homo sapiens, UniProt Q12797)
T1 construct: N-Terminally His6-tagged human AspH315–758 (His6-AspH315–758) was produced in Escherichia coli BL21 (DE3) cells; made in house; host or cells: Escherichia coli BL21 (DE3), pET-28a(+) vector
T1 sequence (Q12797 315-758): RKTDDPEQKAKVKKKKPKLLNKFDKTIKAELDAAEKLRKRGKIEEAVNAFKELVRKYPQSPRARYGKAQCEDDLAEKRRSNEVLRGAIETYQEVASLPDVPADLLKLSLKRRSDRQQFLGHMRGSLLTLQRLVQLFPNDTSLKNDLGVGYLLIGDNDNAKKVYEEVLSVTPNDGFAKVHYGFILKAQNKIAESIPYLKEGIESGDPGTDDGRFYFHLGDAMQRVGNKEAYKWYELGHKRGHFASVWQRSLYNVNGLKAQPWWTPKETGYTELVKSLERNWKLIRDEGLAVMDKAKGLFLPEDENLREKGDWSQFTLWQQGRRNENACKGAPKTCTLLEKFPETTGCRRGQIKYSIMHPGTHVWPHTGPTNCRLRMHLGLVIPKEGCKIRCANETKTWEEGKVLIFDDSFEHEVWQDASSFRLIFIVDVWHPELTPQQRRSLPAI
Test: SPE-MS AspH inhibition assay (hFX-CP101-119 substrate hydroxylation)
Assay type: biochemical

SMILES: CC(C)c1c(C(=O)Nc2ccccc2)c(-c2ccccc2)c(-c2ccc(F)cc2)n1CC[C@@H](O)C[C@@H](O)CC(=O)[O-].CC(C)c1c(C(=O)Nc2ccccc2)c(-c2ccccc2)c(-c2ccc(F)cc2)n1CC[C@@H](O)C[C@@H](O)CC(=O)[O-].[Ca+2] [Atorvastatin Ca]
- Plate 1 (% conversion): 49.56%
- Plate 1-duplicate (% conversion): 52.95%
